These results are taken from paper PMC7568605.

By UniProt entry, the sequences of proteins in these tests, tags left out. Residues count along the entry.
UniProt O70174, residues 31-629: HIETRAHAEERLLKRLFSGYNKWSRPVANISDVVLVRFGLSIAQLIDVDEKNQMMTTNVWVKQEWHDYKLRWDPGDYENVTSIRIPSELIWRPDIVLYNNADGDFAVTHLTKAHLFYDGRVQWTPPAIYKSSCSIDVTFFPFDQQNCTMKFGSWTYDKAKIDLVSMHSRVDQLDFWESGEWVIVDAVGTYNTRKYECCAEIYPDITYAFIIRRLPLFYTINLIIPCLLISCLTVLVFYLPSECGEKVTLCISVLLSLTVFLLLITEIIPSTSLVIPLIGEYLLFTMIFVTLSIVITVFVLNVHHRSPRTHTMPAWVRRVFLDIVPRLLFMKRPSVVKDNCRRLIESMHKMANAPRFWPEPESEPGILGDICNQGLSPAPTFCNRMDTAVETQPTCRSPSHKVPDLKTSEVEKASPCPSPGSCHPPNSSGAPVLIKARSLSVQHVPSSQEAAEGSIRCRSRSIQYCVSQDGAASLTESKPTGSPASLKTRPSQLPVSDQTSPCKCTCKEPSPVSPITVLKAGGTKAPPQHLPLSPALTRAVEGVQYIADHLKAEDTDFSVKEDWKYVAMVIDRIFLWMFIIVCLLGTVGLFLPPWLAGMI

No constants are given. Whether binding was seen depends on the method and setting. In cells and extracts the contact can be indirect. Some binding calls cover weakened binding; strength is not graded here.

The experiment concerns the target α6-GFP nAChR subunit (UniProt Q9R0W9). Kind of experiment: FRET or BRET; NFRET (PixFRET ImageJ plug-in) between α6-GFP (excited at 488 nm) and α4-mCherry (561 nm) in 20 μm coronal brain slices (bregma -3.1 mm) of α4-mCherryα6-GFP mice, Leica SP5 confocal; bleedthrough controls from mice with α4-mCherry alone or α6-GFP alone; mice treated with saline or 0.5 mg/kg nicotine in CPP assays. On the technique in general: In BRET a luciferase serves as donor, and the signal depends on an acceptor being close.

Consider “α4-mCherry nAChR subunit (from UniProt O70174 31-629) (receptor)”, for which the binding result is “binds”.
